According to the M2OR odorant receptor database:
The list shows a part of the results, in another mix than the full data. The calls were merged from several studies; some rest on single wells. Some of the results follow.

tested on: T1, O10G3; details: stereoisomer not certain
T1 sequence (whole entry): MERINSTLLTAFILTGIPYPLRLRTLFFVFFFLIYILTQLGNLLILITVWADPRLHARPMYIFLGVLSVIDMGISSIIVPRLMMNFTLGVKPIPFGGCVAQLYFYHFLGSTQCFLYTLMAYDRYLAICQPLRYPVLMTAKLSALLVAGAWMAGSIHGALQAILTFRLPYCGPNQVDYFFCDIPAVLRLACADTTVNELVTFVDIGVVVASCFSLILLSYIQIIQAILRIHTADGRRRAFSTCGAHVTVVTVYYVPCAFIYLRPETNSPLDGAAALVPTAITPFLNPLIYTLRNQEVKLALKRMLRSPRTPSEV
Method in brief: (§1)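 Each receptor–molecule pair is labelled responsive or non-responsive (inactive) according to whether the original authors judged the measured signal statistically different from baseline. The data were taken from the main text and supplementary material of published papers and checked for typos and inconsistencies. Assay methods differed by source, with transient luciferase assays in mammalian cell lines being common.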
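Further: active if original authors judged signal statistically different from baseline.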

| Compound | odorant receptor agonist call |
| --- | --- |
| CCC(C)=O | inactive |
| CCCCOC(C)=O | inactive |
| CS | inactive |

tested on: T2, O10G4; details: stereoisomer not certain
T2 sequence (whole entry): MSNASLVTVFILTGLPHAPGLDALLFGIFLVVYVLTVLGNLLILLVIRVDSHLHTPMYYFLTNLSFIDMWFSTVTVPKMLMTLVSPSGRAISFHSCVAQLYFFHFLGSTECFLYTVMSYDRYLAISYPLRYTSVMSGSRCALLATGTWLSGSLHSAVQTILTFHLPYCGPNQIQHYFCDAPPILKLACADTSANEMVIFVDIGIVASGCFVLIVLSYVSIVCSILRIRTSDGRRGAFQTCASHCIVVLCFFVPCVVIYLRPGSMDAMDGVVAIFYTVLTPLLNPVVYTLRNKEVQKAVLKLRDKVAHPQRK
Method in brief: as §1

| Compound | odorant receptor agonist call |
| --- | --- |
| CCC(C)=O | inactive |
| CCCCOC(C)=O | inactive |
| CS | inactive |

tested on: T3, O10G9; details: stereoisomer not certain
T3 sequence (whole entry): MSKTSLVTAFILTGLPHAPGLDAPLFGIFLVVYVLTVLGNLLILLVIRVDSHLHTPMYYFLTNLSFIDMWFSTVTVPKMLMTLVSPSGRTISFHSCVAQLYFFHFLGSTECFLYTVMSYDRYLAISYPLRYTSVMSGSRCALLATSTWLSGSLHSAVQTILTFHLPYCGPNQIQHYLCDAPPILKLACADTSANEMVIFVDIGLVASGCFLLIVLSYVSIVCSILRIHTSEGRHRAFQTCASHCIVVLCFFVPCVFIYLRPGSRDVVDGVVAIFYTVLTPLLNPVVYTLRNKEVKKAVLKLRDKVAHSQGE
Method in brief: as §1

| Compound | odorant receptor agonist call |
| --- | --- |
| CCC(C)=O | inactive |
| CCCCOC(C)=O | inactive |
| CS | inactive |

tested on: T4, O10H2; details: stereoisomer not certain
T4 sequence (whole entry): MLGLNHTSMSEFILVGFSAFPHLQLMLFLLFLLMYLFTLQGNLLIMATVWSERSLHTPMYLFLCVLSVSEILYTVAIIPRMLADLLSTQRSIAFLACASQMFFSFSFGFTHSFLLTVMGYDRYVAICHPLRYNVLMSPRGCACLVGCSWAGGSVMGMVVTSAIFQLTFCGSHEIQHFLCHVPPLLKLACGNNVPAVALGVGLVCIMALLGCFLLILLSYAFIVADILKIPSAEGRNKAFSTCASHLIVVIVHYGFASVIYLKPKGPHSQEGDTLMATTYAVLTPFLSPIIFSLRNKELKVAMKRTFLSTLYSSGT
Method in brief: as §1

| Compound | odorant receptor agonist call |
| --- | --- |
| CCC(C)=O | inactive |
| CCCCOC(C)=O | inactive |
| CS | inactive |

tested on: T5, O10H5; details: stereoisomer not certain
T5 sequence (whole entry): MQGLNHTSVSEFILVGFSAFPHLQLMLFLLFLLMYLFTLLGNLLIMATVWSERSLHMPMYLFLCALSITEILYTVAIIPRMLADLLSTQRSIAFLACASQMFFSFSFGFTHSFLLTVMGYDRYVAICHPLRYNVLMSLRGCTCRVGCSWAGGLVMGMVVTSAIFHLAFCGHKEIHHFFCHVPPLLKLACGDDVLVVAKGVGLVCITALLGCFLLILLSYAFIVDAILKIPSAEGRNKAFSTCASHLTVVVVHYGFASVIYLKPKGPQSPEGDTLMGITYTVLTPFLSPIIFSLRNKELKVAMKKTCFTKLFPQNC
Method in brief: as §1

| Compound | odorant receptor agonist call |
| --- | --- |
| CCC(C)=O | inactive |
| CCCCOC(C)=O | inactive |
| CS | inactive |

tested on: T6, O10J1; details: stereoisomer not certain
T6 sequence (whole entry): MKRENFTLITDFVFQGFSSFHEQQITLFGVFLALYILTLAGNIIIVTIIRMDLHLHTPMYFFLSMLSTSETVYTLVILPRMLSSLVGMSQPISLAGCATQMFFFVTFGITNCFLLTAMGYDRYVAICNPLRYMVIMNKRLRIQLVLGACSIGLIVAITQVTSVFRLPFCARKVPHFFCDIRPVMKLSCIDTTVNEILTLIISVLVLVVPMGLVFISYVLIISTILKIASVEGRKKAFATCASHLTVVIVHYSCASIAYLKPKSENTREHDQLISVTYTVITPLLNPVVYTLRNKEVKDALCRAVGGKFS
Method in brief: as §1

| Compound | odorant receptor agonist call |
| --- | --- |
| CCC(C)=O | inactive |
| CCCCOC(C)=O | inactive |
| CS | inactive |

tested on: T7, O10J3; details: stereoisomer not certain
T7 sequence (whole entry): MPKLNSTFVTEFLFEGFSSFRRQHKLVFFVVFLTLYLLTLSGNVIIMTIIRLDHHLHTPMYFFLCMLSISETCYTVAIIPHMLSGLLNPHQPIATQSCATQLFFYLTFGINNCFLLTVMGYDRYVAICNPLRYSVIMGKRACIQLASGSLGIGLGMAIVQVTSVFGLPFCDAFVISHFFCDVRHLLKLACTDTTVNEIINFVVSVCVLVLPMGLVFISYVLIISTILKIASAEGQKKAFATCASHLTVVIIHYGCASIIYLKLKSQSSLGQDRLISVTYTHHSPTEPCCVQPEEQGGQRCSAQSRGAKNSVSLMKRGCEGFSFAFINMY
Method in brief: as §1

| Compound | odorant receptor agonist call |
| --- | --- |
| CCC(C)=O | inactive |
| CCCCOC(C)=O | inactive |
| CS | inactive |

tested on: T8, O10J5; details: stereoisomer not certain
T8 sequence (whole entry): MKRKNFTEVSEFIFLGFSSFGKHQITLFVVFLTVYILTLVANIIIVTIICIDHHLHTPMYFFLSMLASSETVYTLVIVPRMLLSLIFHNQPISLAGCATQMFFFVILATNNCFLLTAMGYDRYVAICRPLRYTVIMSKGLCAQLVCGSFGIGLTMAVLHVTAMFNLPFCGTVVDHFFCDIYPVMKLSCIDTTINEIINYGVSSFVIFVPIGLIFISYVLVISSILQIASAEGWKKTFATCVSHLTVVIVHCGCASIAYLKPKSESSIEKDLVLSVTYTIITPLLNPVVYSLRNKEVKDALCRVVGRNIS
Method in brief: as §1

| Compound | odorant receptor agonist call |
| --- | --- |
| CCC(C)=O | inactive |
| CCCCOC(C)=O | inactive |
| CS | inactive |

tested on: T9, O10P1; details: stereoisomer not certain
T9 sequence (whole entry): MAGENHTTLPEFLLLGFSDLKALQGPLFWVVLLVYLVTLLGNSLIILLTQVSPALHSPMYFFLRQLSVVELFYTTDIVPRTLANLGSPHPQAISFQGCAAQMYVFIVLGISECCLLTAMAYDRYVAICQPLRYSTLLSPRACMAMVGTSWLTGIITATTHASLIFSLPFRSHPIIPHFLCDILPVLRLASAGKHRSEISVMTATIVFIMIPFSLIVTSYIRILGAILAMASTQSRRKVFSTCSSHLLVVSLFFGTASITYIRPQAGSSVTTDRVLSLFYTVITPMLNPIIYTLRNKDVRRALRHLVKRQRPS
Method in brief: as §1

| Compound | odorant receptor agonist call |
| --- | --- |
| CCC(C)=O | inactive |
| CCCCOC(C)=O | inactive |
| CS | inactive |

tested on: T10, O10Q1; details: stereoisomer not certain
T10 sequence (whole entry): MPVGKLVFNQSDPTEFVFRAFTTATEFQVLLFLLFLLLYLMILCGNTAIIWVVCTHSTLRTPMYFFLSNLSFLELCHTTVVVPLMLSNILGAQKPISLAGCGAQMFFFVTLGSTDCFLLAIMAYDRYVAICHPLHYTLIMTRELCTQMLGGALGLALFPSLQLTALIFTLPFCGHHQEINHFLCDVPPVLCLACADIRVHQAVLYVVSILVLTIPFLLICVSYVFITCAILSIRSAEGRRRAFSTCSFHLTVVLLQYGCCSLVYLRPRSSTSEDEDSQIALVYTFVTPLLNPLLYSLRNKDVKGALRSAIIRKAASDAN
Method in brief: as §1

| Compound | odorant receptor agonist call |
| --- | --- |
| CCC(C)=O | inactive |
| CCCCOC(C)=O | inactive |
| CS | inactive |
